From paper PMC9130998, “Paclitaxel binds and activates C5aR1: A new potential therapeutic target for the prevention of chemotherapy-induced peripheral neuropathy and hypersensitivity reactions” (Cell Death & Disease, 2022)
Results are given in words; binding and its absence hold for the method and conditions named. Binding can be weak; no strength is given.

Sequences of proteins named here, by UniProt entry; tags and fusion partners are left off. A change or cut given only in a name is not applied to a line headed by its entry. Residues count along the entry.
UniProt P01031, residues 678-751: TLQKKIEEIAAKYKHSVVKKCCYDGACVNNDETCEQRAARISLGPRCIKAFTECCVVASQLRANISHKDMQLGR
UniProt P21730: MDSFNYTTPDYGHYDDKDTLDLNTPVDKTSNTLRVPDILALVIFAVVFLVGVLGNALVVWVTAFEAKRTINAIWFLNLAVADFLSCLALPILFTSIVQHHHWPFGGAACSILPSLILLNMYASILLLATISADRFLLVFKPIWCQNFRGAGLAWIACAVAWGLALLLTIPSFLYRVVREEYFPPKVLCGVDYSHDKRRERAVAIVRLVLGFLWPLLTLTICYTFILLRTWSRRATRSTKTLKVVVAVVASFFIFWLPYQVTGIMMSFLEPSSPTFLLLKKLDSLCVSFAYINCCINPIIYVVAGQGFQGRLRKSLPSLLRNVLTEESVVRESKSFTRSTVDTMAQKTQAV

Experiments:
[1] = target: complement C5a des-Arg, Human (human) (UniProt P01031); test: SPR; BIAcore X100; C5a (1913 RU) or C5a des-Arg (1520 RU) amine-coupled to a CM5 sensorchip; C5aR1 (50 nM) co-injected with increasing concentrations of paclitaxel; both purified
[2] = target: human recombinant C5a (human) (UniProt P01031); test: as above

- binding [1]: binds
- binding [2]: binds
Substance: recombinant human complement component 5a receptor 1 (C5aR1) with a C-terminal c-Myc tag (from UniProt P21730)
